Drawing on paper doi:10.1101/2024.11.06.622079, this text covers binding for one substance.

Sequences of proteins named here, by UniProt entry; tags and fusion partners are left off. A change or cut given only in a name is not applied to a line headed by its entry.
UniProt Q96SW2: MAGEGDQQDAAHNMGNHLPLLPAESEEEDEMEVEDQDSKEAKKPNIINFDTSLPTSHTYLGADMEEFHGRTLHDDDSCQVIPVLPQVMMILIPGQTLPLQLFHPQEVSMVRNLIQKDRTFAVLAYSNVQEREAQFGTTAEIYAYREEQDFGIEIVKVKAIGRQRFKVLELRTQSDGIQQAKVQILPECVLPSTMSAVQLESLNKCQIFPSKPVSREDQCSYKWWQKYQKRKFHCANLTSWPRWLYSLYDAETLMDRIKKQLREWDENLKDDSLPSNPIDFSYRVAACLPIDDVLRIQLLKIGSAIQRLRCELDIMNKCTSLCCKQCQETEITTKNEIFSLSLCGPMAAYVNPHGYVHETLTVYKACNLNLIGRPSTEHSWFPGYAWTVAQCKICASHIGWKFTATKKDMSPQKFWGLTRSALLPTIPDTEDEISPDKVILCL
UniProt Q8TDX7: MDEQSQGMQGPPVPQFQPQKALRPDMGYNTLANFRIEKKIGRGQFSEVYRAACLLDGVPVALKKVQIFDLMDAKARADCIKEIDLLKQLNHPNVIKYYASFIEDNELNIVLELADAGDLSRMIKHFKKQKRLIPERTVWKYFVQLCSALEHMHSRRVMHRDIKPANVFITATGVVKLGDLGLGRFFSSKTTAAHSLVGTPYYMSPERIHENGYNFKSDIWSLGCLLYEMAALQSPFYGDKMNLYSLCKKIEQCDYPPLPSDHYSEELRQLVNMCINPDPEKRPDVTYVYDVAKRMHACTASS

The assay concerns the target LgBiT-tagged cereblon (CRBN) (UniProt Q96SW2). Kind of assay: split reporter.

Results are given in words; binding and its absence hold for the method and conditions named. In cells and extracts the contact can be indirect.

In the case of “SmBiT-tagged G57N NEK7 mutant (from UniProt Q8TDX7 1-302)”, the binding result is given as “no binding”.
